Values from PubChem BioAssay AID1259308 (NCATS, 2017)
Test: 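Genes whose loss raises luciferase production in HEK293 cells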 (primary screen). Cells: human HEK293 embryonic kidney cells stably expressing firefly luciferase (HEK-CMV-Luc2-Hygro). Reagent: single siRNA against human genes, 0.8 pmol siRNA per well. Duration: 72 h. Measured: 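Luciferase light (ONE-Glo) measured on one replicate plate set and viability (CellTiter-Glo) on the other, scaled to a negative control siRNA, with robust z-scores and luciferase per cell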. Scale: total luciferase, z-score and total luciferase, % of control: higher = more reporter protein produced. Call rule: 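Active when the median/MAD z-score for overall luciferase is greater than 3; a gene was taken forward for validation with new siRNAs if at least two of its three siRNAs passed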. Meaning of the calls: active = raised luciferase; inactive = no rise.
Here is one part, drawn at random, of about 59,000 deposited reagents. In the full data, about 1,510 (2.6%) were called active. 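Calls use total luciferase alone and ignore viability, so some active siRNAs may act by altering cell number.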 A number with no mark means an inactive call. The numbers tell different reagents against one gene apart. Further read-outs or replicates are left out here.

Target gene	siRNA no.	total luciferase, z-score	total luciferase, % of control
DNHD1	1	-0.466	72.6
DNHD1	2	-0.489	72.2
DNHD1	3	1.13	104
DNHD1	4	-0.833	65.3
DNHD1	5	0.812	98
DNHD1	6	0.199	85.8
DNHD1	7	-0.917	63.7
DNHD1	8	-0.778	66.4
DNHD1	9	-1.81	45.9
IFT140	1	1.53	112
IFT140	2	0.183	85.5
IFT140	3	-0.521	71.5
RCN2	1	-0.548	71
RCN2	2	-0.263	76.6
RCN2	3	0.126	84.4
CA1	1	0.206	86
CA1	2	-2.04	41.3
CA1	3	-1.14	59.1
KLHL7	1	-0.665	68.7
KLHL7	2	2.55	133
KLHL7	3	-1.09	60.3
EIF2B5	1	-2.16	38.9
EIF2B5	2	-1.23	57.5
EIF2B5	3	-0.723	67.5
ATAD3C	1	1.62	114
ATAD3C	2	-0.0527	80.8
ATAD3C	3	-1.67	48.6
OR2J2	1	0.177	85.4
OR2J2	2	0.71	96
OR2J2	3	1.1	104

Quoted from the entries so far for reference:
Target gene	siRNA no.	total luciferase, z-score	total luciferase, % of control
KLHL7	3	-1.09	60.3
EIF2B5	1	-2.16	38.9
EIF2B5	2	-1.23	57.5
EIF2B5	3	-0.723	67.5

The results go on:
Target gene	siRNA no.	total luciferase, z-score	total luciferase, % of control
ABCB6	1	-0.0603	80.7
ABCB6	2	0.412	90.1
ABCB6	3	-0.429	73.3
DCAF12L2	1	-0.383	74.3
DCAF12L2	2	-0.378	74.4
DCAF12L2	3	0.16	85.1
GAL3ST2	1	-0.373	74.5
GAL3ST2	2	-1.49	52.3
GAL3ST2	3	5.18 (active)	185
CALM1	1	2.52	132
CALM1	2	-1.31	55.8
CALM1	3	-0.578	70.4
PRKN	1	0.116	84.2
PRKN	2	5.69 (active)	195
PRKN	3	-0.0908	80.1
ZNF484	1	-0.422	73.5
ZNF484	2	0.388	89.6
ZNF484	3	-0.214	77.6
ZNF622	1	-0.00854	81.7
ZNF622	2	1.1	104
ZNF622	3	0.428	90.4
BRSK1	1	0.848	98.7
BRSK1	2	2.04	123
BRSK1	3	-1	61.9
PARVA	1	-0.438	73.2
PARVA	2	0.461	91.1
PARVA	3	1.77	117
